In brackets after ≈: the same amount, converted by molar mass. Like-named read-outs stand apart in the source and are kept apart here.
Legend:
Assay type in all cases: cell-based
Fa2N-4 cells = assay: MTT cytotoxicity assay, Fa2N-4; conditions: Homo sapiens, carrageenans in degraded form
HepG2 cells = assay: MTT cytotoxicity assay, HepG2; conditions: Homo sapiens, carrageenans in degraded form, / = no IC50 found
FHs 74 Int cells = assay: MTT cytotoxicity assay, FHs 74 Int; conditions: Homo sapiens, FHs74Int, carrageenans in degraded form, / = no IC50 found

## CC/C(=C(\c1ccccc1)c1ccc(OCCN(C)C)cc1)c1ccccc1 [TAM, Tamoxifen]
Fa2N-4 cells; Fa2N-4, 24 h, 24 h, read-out: Inhibition concentrations causing 50% cell death (IC50), 24 h, fa2N4
  IC50: 2.2 µg/mL (≈ 5.92 µM)
Fa2N-4 cells; Fa2N-4, 48 h, 48 h, read-out: Inhibition concentrations causing 50% cell death (IC50), 48 h, fa2N4
  IC50: 0.8 µg/mL (≈ 2.15 µM)
Fa2N-4 cells; Fa2N-4, 72 h, 72 h, read-out: Inhibition concentrations causing 50% cell death (IC50), 72 h, fa2N4
  IC50: 1.2 µg/mL (≈ 3.23 µM)
HepG2 cells; 24 h, read-out: Inhibition concentrations causing 50% cell death (IC50), 24 h, HepG2
  IC50: 9 µg/mL (≈ 24.2 µM)
HepG2 cells; 72 h, read-out: Inhibition concentrations causing 50% cell death (IC50), 72 h, HepG2
  IC50: 6 µg/mL (≈ 16.1 µM)
FHs 74 Int cells; 24 h, read-out: Inhibition concentrations causing 50% cell death (IC50), 24 h, FHS 74 Int
  IC50: 8.4 µg/mL (≈ 22.6 µM)
FHs 74 Int cells; 48 h, read-out: Inhibition concentrations causing 50% cell death (IC50), 48 h, FHS 74 Int
  IC50: 7.2 µg/mL (≈ 19.4 µM)
FHs 74 Int cells; 72 h, read-out: Inhibition concentrations causing 50% cell death (IC50), 72 h, FHS 74 Int
  IC50: 6.8 µg/mL (≈ 18.3 µM)
